# The supplement of paper PMC11732987, “Enantioselective OTUD7B fragment discovery through chemoproteomics screening and high-throughput optimisation” (Communications Chemistry, 2025)
# Chains of the proteins cited; added tags and fusions are not shown. Lines headed by an entry give the natural chain unless they say otherwise; changes in a name come on top. Residues count along the entry.
# UniProt Q9NX07: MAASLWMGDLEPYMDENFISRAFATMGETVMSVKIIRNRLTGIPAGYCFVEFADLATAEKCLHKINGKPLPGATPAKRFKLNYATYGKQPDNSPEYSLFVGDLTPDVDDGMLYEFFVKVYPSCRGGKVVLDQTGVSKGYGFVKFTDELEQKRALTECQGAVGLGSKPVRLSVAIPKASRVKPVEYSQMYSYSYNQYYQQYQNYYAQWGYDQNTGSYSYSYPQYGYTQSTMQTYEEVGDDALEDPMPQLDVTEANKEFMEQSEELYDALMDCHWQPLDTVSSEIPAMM
# UniProt Q9UJA5: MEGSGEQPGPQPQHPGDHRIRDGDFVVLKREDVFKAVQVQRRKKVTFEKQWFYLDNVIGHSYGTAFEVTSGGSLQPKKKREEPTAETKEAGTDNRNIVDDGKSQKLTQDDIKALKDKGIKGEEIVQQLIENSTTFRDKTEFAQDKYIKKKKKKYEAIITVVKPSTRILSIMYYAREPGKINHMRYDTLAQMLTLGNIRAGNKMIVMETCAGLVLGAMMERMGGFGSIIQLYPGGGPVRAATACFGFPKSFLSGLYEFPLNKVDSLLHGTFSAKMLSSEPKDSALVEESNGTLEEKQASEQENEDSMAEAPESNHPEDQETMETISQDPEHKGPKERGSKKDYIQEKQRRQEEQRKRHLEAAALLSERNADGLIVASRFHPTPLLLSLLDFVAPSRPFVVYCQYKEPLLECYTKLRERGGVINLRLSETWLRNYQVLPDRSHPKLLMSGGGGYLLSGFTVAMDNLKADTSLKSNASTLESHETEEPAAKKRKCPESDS
# UniProt O95900: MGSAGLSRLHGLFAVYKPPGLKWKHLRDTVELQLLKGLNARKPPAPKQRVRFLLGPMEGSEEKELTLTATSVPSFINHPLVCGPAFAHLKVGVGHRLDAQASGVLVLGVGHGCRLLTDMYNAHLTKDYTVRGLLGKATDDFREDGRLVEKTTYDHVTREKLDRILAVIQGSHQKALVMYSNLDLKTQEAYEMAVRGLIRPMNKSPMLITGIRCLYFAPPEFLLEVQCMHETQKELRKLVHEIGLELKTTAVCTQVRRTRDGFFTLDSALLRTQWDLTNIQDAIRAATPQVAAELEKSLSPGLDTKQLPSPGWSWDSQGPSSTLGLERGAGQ
# UniProt Q5T4S7, whole entry, looked up: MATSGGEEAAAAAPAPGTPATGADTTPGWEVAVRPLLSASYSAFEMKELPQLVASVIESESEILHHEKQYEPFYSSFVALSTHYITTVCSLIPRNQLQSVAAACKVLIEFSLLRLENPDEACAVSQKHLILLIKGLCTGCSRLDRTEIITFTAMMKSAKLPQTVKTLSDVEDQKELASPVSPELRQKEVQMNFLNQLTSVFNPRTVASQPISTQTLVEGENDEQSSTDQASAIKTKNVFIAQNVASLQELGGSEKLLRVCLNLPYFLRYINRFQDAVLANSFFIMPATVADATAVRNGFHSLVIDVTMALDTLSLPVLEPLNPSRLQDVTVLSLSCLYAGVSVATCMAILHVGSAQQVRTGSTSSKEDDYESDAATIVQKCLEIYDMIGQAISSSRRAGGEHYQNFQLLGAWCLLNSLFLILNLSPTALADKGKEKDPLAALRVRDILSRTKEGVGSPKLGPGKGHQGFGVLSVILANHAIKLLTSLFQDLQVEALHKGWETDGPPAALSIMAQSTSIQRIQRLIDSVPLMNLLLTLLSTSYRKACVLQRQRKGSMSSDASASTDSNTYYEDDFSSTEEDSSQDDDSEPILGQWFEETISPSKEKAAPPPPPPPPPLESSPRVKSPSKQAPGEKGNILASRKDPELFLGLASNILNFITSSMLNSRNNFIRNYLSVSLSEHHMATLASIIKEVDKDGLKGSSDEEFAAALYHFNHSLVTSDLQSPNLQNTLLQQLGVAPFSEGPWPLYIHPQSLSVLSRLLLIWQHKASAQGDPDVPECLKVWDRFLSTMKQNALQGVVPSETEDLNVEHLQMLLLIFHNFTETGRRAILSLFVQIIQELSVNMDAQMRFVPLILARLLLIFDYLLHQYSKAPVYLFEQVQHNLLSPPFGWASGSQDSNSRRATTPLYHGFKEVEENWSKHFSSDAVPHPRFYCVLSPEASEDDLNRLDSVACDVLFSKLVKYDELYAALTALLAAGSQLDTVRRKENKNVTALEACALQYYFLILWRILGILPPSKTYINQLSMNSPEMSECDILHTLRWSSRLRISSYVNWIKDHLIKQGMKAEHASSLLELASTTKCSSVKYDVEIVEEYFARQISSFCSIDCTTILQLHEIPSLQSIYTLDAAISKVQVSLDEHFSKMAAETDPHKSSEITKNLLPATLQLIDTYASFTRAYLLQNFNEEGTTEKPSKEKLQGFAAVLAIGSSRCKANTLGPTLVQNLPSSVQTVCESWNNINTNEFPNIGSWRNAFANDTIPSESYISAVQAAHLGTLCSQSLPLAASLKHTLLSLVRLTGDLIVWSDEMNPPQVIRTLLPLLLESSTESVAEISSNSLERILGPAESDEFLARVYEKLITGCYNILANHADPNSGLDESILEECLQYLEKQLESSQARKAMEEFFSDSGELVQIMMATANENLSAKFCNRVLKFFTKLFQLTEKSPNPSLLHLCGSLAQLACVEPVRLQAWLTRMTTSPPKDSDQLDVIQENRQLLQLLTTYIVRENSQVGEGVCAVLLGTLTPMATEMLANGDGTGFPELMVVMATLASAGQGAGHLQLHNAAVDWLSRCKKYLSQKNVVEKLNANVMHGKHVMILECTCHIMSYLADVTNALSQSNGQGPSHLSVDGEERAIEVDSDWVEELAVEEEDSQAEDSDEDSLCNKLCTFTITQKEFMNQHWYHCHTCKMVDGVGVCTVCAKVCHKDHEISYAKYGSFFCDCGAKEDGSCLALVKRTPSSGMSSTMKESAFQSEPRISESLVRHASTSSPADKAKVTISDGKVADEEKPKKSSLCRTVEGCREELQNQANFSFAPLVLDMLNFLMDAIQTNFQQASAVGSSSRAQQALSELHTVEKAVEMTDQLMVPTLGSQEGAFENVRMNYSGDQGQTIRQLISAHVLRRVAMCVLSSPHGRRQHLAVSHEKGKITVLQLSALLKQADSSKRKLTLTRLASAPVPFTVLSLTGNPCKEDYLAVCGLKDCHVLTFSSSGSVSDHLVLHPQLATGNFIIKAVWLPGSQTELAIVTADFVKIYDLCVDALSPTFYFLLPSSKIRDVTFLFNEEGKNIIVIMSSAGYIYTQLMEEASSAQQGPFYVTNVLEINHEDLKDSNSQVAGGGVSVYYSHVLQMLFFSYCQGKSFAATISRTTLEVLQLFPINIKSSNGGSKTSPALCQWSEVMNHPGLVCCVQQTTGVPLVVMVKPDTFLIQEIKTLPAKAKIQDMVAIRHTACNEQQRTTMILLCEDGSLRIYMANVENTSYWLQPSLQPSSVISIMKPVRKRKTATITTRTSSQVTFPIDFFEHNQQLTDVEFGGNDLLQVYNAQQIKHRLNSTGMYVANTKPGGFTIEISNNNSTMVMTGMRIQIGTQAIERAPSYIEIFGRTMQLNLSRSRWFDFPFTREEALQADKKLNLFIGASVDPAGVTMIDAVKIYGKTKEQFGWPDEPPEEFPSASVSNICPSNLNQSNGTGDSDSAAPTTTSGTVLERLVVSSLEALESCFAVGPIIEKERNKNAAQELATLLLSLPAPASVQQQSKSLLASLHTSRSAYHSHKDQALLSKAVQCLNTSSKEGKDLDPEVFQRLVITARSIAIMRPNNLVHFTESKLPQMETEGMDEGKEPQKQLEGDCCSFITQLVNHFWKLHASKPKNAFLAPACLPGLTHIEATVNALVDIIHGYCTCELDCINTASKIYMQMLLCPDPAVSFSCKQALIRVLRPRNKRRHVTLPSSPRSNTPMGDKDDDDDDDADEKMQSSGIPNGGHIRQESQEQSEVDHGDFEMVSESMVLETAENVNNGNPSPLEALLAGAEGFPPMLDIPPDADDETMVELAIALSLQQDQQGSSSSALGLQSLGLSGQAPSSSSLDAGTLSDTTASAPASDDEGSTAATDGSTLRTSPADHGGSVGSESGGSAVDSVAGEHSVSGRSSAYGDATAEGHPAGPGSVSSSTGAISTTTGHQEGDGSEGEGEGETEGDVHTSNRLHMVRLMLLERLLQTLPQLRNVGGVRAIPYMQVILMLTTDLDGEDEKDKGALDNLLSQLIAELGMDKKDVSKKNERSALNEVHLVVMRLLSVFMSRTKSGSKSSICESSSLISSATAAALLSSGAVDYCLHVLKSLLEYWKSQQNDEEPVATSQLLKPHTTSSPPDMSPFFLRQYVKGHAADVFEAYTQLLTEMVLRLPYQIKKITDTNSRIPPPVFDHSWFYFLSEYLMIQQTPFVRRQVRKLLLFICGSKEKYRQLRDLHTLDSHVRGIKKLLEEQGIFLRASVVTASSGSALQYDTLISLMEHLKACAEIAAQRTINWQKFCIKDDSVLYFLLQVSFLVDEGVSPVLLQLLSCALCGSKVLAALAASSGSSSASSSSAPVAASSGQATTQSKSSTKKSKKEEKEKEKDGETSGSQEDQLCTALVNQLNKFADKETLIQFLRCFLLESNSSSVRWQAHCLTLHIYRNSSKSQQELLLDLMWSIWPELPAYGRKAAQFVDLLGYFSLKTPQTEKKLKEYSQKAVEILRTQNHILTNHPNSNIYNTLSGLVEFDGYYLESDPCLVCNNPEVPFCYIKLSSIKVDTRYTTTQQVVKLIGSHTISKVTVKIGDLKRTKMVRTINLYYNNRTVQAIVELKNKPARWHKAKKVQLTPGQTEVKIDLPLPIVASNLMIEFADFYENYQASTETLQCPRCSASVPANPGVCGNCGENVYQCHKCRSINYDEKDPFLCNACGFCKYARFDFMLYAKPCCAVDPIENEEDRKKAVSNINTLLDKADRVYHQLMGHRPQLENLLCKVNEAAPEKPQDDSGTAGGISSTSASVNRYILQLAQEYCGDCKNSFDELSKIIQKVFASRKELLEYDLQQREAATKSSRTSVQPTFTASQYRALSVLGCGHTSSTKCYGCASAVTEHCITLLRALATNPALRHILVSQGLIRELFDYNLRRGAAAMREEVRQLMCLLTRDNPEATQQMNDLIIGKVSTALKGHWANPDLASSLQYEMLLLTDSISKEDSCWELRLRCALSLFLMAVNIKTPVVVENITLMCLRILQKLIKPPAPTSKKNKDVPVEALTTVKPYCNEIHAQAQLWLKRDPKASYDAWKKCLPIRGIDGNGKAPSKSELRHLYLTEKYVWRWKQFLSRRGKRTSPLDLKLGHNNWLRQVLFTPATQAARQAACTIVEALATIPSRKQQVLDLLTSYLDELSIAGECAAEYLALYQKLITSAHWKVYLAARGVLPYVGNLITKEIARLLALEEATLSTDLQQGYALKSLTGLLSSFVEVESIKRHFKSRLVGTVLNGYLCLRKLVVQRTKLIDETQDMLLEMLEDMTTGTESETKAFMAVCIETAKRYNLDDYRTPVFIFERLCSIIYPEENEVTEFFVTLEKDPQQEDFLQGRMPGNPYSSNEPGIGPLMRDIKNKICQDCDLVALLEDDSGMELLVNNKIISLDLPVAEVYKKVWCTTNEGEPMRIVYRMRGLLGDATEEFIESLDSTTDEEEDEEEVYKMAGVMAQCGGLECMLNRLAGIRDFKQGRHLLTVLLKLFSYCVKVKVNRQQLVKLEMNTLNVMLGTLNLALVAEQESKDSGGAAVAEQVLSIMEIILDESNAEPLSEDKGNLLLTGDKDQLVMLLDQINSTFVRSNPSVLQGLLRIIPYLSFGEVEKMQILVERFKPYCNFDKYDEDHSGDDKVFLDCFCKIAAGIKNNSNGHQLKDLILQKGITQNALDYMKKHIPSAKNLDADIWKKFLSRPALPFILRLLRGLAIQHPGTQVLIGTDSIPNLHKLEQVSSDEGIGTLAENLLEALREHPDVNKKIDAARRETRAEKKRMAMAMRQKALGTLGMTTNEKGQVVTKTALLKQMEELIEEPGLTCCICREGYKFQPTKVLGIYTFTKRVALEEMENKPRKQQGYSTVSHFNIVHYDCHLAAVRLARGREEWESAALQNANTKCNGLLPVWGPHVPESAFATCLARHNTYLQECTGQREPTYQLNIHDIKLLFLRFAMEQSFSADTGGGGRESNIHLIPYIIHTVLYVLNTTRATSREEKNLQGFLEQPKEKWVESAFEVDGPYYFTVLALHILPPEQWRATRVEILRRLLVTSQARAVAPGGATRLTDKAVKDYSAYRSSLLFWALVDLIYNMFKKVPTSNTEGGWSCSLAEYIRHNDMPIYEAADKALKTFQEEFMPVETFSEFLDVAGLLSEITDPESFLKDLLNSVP
# UniProt Q9BZL1: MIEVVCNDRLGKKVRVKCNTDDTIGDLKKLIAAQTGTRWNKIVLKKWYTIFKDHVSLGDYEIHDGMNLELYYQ
# UniProt P51965: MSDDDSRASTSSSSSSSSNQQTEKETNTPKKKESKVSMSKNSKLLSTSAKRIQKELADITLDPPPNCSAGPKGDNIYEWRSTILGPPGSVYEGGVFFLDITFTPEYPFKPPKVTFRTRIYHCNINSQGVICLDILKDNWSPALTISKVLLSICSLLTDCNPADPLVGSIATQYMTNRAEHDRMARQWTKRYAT
# UniProt Q9BSJ2, 715-735: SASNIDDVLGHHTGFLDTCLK
# The list shows a part of the results. The data scatter; read single values as rough.
# Compound: ClCC(=O)N[C@@H]1CCCc2ccccc12
# Test: log2 mean competition ratio of IA-DTB cysteine labelling (DMSO/compound) (log2 ratio); higher = stronger cysteine engagement by compound
# Conditions: 50 µM; treatment time: 4 h; cell line lysate: HEK293T
# Experimental: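 IA-DTB competitive cysteine chemoproteomics in HEK293T RIPA lysate. Lysates were treated with compound 29 or 30 at 50 or 200 µM for 4 h, then IA-DTB (500 µM, 1 h), trypsin-digested, NeutrAvidin-enriched and analysed by diaPASEF. Competition ratio = intensity DMSO / intensity compound (n=4 treated, n=64 DMSO); binding: mean log2 CR ≥ 1 and p ≤ 0.05 plus QC filters. Target is the cysteine site.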
row,Target,log2 mean competition ratio
1,UBAP2 C10,0.332
2,TTC37 C329 (UniProt Q6PGP7),0.113
3,UAP1L1 C296 (UniProt Q3KQV9),0.17
4,UBE2O C375,0.0278
5,TRNAU1AP C157 (UniProt Q9NX07),0.0876
6,TTC37 C1031 (UniProt Q6PGP7),0.136
7,TSEN54 C277 (UniProt Q7Z6J9),0.146
8,TRRAP C350 (UniProt Q9Y4A5),0.0763
9,TRMT6 C492 (UniProt Q9UJA5),-0.171
10,UBE2M C65,-0.204
11,TRUB2 C252 (UniProt O95900),-0.0443
12,UBR4 C3864 (UniProt Q5T4S7),-0.104
13,UBL5 C18 (UniProt Q9BZL1),-0.171
14,UBE2E1 C67 (UniProt P51965),-0.129
15,TRMT1 C614 (UniProt Q9NXH9),-0.0414
16,U2SURP C65 (UniProt O15042),0.31
17,TUBGCP2 C733 (UniProt Q9BSJ2),0.117
18,TUT4 C302 (UniProt Q5TAX3),-0.0867
19,UBR4 C3279 (UniProt Q5T4S7),0.0838
20,TTC21B C187 (UniProt Q7Z4L5),-0.148

# Same assay, conditions: 200 µM; treatment time: 4 h; cell line lysate: HEK293T
row,Target,log2 mean competition ratio
1,UBAP2 C10,0.285
2,TTC37 C329 (UniProt Q6PGP7),0.071
3,UAP1L1 C296 (UniProt Q3KQV9),-0.439
4,UBE2O C375,0.026
5,TRNAU1AP C157 (UniProt Q9NX07),0.147
6,TTC37 C1031 (UniProt Q6PGP7),-0.0867
7,TSEN54 C277 (UniProt Q7Z6J9),0.113
8,TRRAP C350 (UniProt Q9Y4A5),-0.2
9,TRMT6 C492 (UniProt Q9UJA5),-0.0643
10,UBE2M C65,-0.352
11,TRUB2 C252 (UniProt O95900),0.0779
12,UBR4 C3864 (UniProt Q5T4S7),0.0394
13,UBL5 C18 (UniProt Q9BZL1),0.0352
14,UBE2E1 C67 (UniProt P51965),-0.259
15,TRMT1 C614 (UniProt Q9NXH9),0.015
16,U2SURP C65 (UniProt O15042),0.113
17,TUBGCP2 C733 (UniProt Q9BSJ2),0.801
18,TUT4 C302 (UniProt Q5TAX3),-0.0639
19,UBR4 C3279 (UniProt Q5T4S7),-0.115
20,TTC21B C187 (UniProt Q7Z4L5),0.257
